The source of these data is PubChem BioAssay AID1508600 (Functional Genomics Laboratory (NCATS/FGL), 2020).

Out of some 53,000 sequences screened, about 3,700 (7%) were called active.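 Rule for the calls: active = gene knockdowns whose robust z-score for IL-1 alpha signal is at least 2 or at most -2, so actives lie on both sides; inactive = the rest.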 This is one part of the list.

The assay is described as follows: Components of the Cytosolic LPS Sensing Pathway: Gene Identification via Genome-wide siRNA Screen.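 Note: robust z of the log signal after scaling to non-targeting control siRNA wells of the plate.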 The note with it: RAW264.7 macrophages, IL-1a HTRF, actives lie on both sides, screened at 100 nM (by protocol), cells primed 5 h with Pam3CSK4 first. The method in brief:
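Read-out: IL-1a HTRF on supernatant, divided by plate negative-control median ×100, log-transformed and converted to robust z-score. Cells were RAW264.7 given 100 nM siRNA, Pam3CSK4-primed 5 hours, then LipidA-transfected 24 hour.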
A general note: Time-resolved FRET reads energy transfer from a long-lived donor to a nearby acceptor.
GGCUUUCGCUGGGCAAAAUTT against Uts2: the z-score is inactive: -0.691.

For GGAAGAUUUCUUCAAACGCTT against Lhx4, the z-score is inactive: -0.167.

For the sequence GGGUCAAAGGAAUAAAACATT against Slc22a5, the z-score was inactive: -0.2.

With CCUAUUGUCUGAUAGCCCUTT against Ms4a7, the z-score is inactive: -1.07.

On to GCUGGAGAUCAUCCUUCAGTT against Rph3al, for which the z-score was inactive: 0.742.

As for GGCUGUAUGGGCGAAUAACTT against Plxnd1, the z-score was inactive: -0.00226.

In the case of GGAGCUACACACAUAGGAATT against Clec2h, the z-score was inactive: 0.891.

As to GGAAGUUGAGGCUUUGAAGTT against Bnip3l, the z-score was inactive: 0.48.

With GCUCUUGAAAUUUCACUCUTT against Ide, the z-score is active: 2.1.

In the case of GCUUUUACCGUUACGUCUUTT against Uggt1, the z-score is active: 2.18.

Consider GGGAUGUGGAAAGAAUCCATT against Ercc8, for which the z-score was inactive: -1.13.

In the case of GGUACAAGGUCAUCAUGAGTT against Olfr1341, the z-score was active: -2.85.

GCUUACUAAGGUGAUAAUGTT against Il17d: the z-score is inactive: 0.0918.

On to GGAAGCAAAUGGUUUGUAATT against Srsf2, for which the z-score was inactive: 1.36.

As for GGCCUCUGUGGUGUUUAACTT against Omp, the z-score was inactive: -0.277.

As for GCAGGAUUGCGUCCAUAUCTT against Mbd1, the z-score is inactive: -0.157.

On to GGUAUUACGUCAAAUGCCATT against Sec24a, for which the z-score is inactive: -1.04.

With GGUAAACUCUUGAACAGUATT against Rai1, the z-score was inactive: 0.737.

For the sequence CUAGAUGCACAGAAUAGCATT against Prm1, the z-score was inactive: -1.83.

Turning to GGCUCUGAGAUUCGACUAGTT against P4hb, the z-score is inactive: 0.461.

For GGAUGAUAUGGCAUACUUUTT against Fam221a, the z-score is inactive: 0.803.

As to GGGAUGACUUGGAGUCUCUTT against Csnk1d, the z-score was inactive: -0.0473.

For GGAUACAAGCCUUUUAACCTT against Sri, the z-score was inactive: -0.0625.

Turning to UCACAGUCAUCAUUGUUUCTT against Olfr825, the z-score is active: -2.83.

In the case of GGAAAUCAGCUGAAUUACUTT against Dicer1, the z-score is inactive: 1.07.

As to GCAGAAUUGAAGCUGGAAUTT against Stag1, the z-score was active: 2.49.

As to GGCCACCAUCAAUUUAUAUTT against Ripply1, the z-score was inactive: -1.87.

As to GGCUUCAAACAUUUACUGGTT against Aggf1, the z-score was inactive: -0.21.

As for GGCUAUGUGGGAGAGAAGATT against Mpzl3, the z-score is inactive: -0.941.

Take CCGAAGGAUUGAAGAGCCUTT against Trnt1: the z-score was inactive: 0.746.

In the case of GGCUUAUGUAUGUAAACACTT against Zfp788, the z-score is inactive: 0.468.

In the case of GGCGACAGCUAAGUGUUGGTT against Gprc5a, the z-score is inactive: -0.0528.

As for GAGGUACUUACAGGUUGUCTT against Mageb1, the z-score was inactive: -0.431.

For GGAGAUGAAUGUUUACAACTT against Sema6a, the z-score was inactive: 1.24.

In the case of AUUGGACUUCUACAUGGCUTT against Olfr207, the z-score is inactive: 1.43.

As for GGGAGAUGAUAAUAUGUAUTT against Pogk, the z-score was inactive: -1.62.

As for “GCUCCAGCUCUGCUUUAAGTT against 4931440P22Rik”, the z-score was inactive: 1.28.

GGUACAUGAAGAAAAGUAATT against Lrrc19: the z-score is inactive: -0.243.

As for GGAGUGGGAUGAAAUUACATT against Slc35f4, the z-score was inactive: -1.5.

As to CGAGCUAUUUACUUUGAUGTT against Gfm1, the z-score is inactive: 0.419.

Take GGAGCUCAUGGAAAUCUGUTT against Pfpl: the z-score is inactive: 0.446.

Consider GGACACCUUUCAUCAAAUUTT against Nat3, for which the z-score is inactive: 0.288.

Regarding GGAGGAUCCACGAUUACUUTT against Ifne, the z-score was inactive: 1.04.

Take GCACGUGGAUCCUAACAAGTT against Exd1: the z-score was inactive: -1.84.

For the sequence GCCGGAUUCUUCAAAAGCUTT against Commd10, the z-score was inactive: -1.02.

As to CCUGGAAACAUCAUGUAGUTT against Dctn1, the z-score is inactive: -1.23.

In the case of GUGGCAAAUGCAAAUGCAATT against Fxyd3, the z-score was inactive: 1.09.

As for GCGAUAUUUCAAGAGAAGCTT against Evc2, the z-score was inactive: -0.372.

Regarding GGAGCAGAUUGCAUUUGAGTT against Pkdcc, the z-score was inactive: -0.662.

With “GGCUUGUUGAGCCCUUACATT against 4930412M03Rik”, the z-score was inactive: -0.627.

Regarding CCACUAAUAGUCGUAGAAUTT against Dand5, the z-score is inactive: 0.535.

As to GGUUAGCUACAGAUAUAUUTT against Evi5, the z-score was inactive: -0.391.

With GCCUGAUUGAUAAAGAAAUTT against Ppp1r14c, the z-score was inactive: -0.0761.

Turning to CGAUCUUCCAAACCCUCUUTT against Dhh, the z-score was active: 2.54.

Consider GGUUCUCCAGUUUGUCCGATT against Evx2, for which the z-score was inactive: -0.415.

Regarding CGAGAUCUCACAACUUAUATT against Lca5, the z-score was inactive: 1.71.

Consider CCGUGGCGUAUGUGAUCAATT against Map3k5, for which the z-score was inactive: -0.249.

For the sequence GGUUCCUACACGAAAGGAUTT against Eif2b4, the z-score is inactive: 0.14.

With GGAAGUGCAAGGUUUACAATT against Rbbp8, the z-score was inactive: 0.239.

With GGUCAAGAUGUCAUUAUGATT against Speg, the z-score is inactive: -0.53.

In the case of CCAGUUAAACACAUUAGCCTT against Mxra8, the z-score was inactive: -0.373.

For the sequence GCCAUUUACAUUCCCAGGGTT against Vmo1, the z-score is inactive: -1.52.

For the sequence GGAUGCUGAGUUUCUGCCATT against Babam2, the z-score is inactive: -0.0609.

In the case of GCACAUUUUACCCAAGGCCTT against Lpar4, the z-score was inactive: 0.878.

For GGCAUUUGUAAUUCCAGUUTT against Spata33, the z-score is inactive: 0.456.

For the sequence CCUAUCUUUUCCCUACAUGTT against Cyp4a31, the z-score is active: 2.01.

Take CCACGUAGGUAAGUGUAGGTT against Oard1: the z-score was inactive: 0.81.

As to GGAUUUGAGGUUUUAGGAATT against Qtrt2, the z-score was inactive: -0.0174.

For GGCAGAUUGUGAAAAAACUTT against Slc9a6, the z-score was inactive: -0.503.
